This is an account of results in patent publication US20100249031A1, “Nutritional Composition Comprising Curcuminoids and Methods of Manufacture” (priority 2009, published 2010).

The structures appear in SMILES notation.

A short description of this series: Solubilization of CURCUMIN C3 COMPLEX curcuminoids in MCT oil (NEOBEE 1053) as a function of temperature, HPLC. The following applies: at temperatures below 95° C. In kind it is physicochemical.

With `COc1cc(/C=C/C(=O)CC(=O)/C=C/c2ccc(O)c(OC)c2)ccc1O` [Curcumin, curcumin], the “Solubility in MCT oil” value was “not appreciably soluble”.
